# Results from PubChem BioAssay AID540256 (National Center for Advancing Translational Sciences (NCATS), 2011).
# Out of some 300,000 compounds screened, about 3,700 (1.2%) were called active. Inconclusive results, whose numbers are uncertain, are shown with a selection of clear calls. The call rests on the fitted dose curve; tested in HEK293 cells. Potencies of inconclusive entries are doubtful fits and often do not repeat.
# Experiment: qHTS for Inhibitors of binding or entry into cells for Lassa Virus; further: nearly all actives have a fitted effect of over 50% in size
# Conditions: Lassa virus pseudotype entry inhibition, cell reporter; activity change, negative = inhibition: at 37.9 µM (top of the series) unless noted
# On the % scale 0 is the no-effect control and ±100 the full control effect; potency means the concentration at half of the fitted maximal effect.
SMILES,Potency,"activity change, negative = inhibition"
CCOc1cccc(C(=O)N(Cc2ccc(F)cc2)Cc2ccco2)c1,"inconclusive: 8.91 µM [inhibitor, partial curve, poor fit]",–
CC(=O)c1c(C)[nH]c(C(=O)COC(=O)c2cccs2)c1C,"inconclusive: 7.94 µM [activator, partial curve]",–
Cc1ccc(NC(=O)c2sc3ccccc3c2Cl)nc1,active: 5.8 µM,–
CCC(=NCc1ccco1)c1c(O)n(-c2ccc(C)cc2)c(=O)[nH]c1=O,active: 0.58 µM,–
CC(=O)c1ccc(N2CCCCC2)c(F)c1,–,inactive: 17.9%
COC(=O)[C@H](CCSC)NC(=O)Nc1ccc(C)cc1C,"inconclusive: 5.8 µM [activator, full curve, poor fit]",–
CCN(C(=O)COC(=O)c1ccc2ccccc2n1)c1c(N)n(Cc2ccccc2)c(=O)[nH]c1=O,–,inactive: -9.9%
O=c1c2sccc2[nH]c(=S)n1Cc1ccccc1,"inconclusive: 0.146 µM [inhibitor, single point]",–
COc1cc(-c2ccno2)ccc1S(=O)(=O)N1CCN(c2ccccc2)CC1,–,inactive: -15.3% [at 46.1 µM]
COc1ccc(/C=C2/SC(=S)N(CCC(=O)N3CCN(C)CC3)C2=O)cc1,"inconclusive: 11.2 µM [inhibitor, single point]",–
COc1cccc(O)c1CN1CCCC(C(=O)c2sccc2C)C1 (stereo not given),"inconclusive: 35.5 µM [inhibitor, single point]",–
CNS(=O)(=O)c1cnccc1N1CCN(c2cccc(Cl)c2)CC1,–,inactive: 4.67%
Clc1ccc(/C=C/c2nc3ccccc3[nH]2)c(Cl)c1,active: 10.3 µM,–
COC(=O)c1ccc(Nc2nc(C)nc3c2nnn3Cc2ccccc2)cc1,"inconclusive: 25.1 µM [activator, single point]",–
COc1ccc(-c2c(C(C)=O)c(C)nc3sc4c(=O)n(-c5ccc(C)cc5)nnc4c23)cc1,"inconclusive: 5.62 µM [inhibitor, single point]",–
COc1ccc(N2CCN(S(=O)(=O)c3ccc4c(c3)NC(=O)C(C)S4)CC2)cc1 (stereo not given),"inconclusive: 8.91 µM [inhibitor, partial curve, poor fit]",–
CCOC(=O)C1CCCN(CCC(C)c2ccccc2)C1 (stereo not given),–,inactive: 25.1% [at 14.3 µM]
CN(C)CCN[C@H]1CCC2C3CC=C4C[C@@H](O)CC[C@]4(C)C3CC[C@@]21C (stereo not given in full),"inconclusive: 15.8 µM [inhibitor, single point]",–
O=C(Cc1ccccc1)Nc1ccc(Cl)cn1,–,inactive: 19.7%
O=C(COC(=O)c1ccc(S(=O)(=O)C(F)F)cc1)NC(=O)NC1CCCCC1,"inconclusive: 6.31 µM [inhibitor, single point]",–

# In a second layout: entries from further up
SMILES | Potency | activity change, negative = inhibition
Cc1ccc(NC(=O)c2sc3ccccc3c2Cl)nc1 | active: 5.8 µM | –
COc1ccc(-c2c(C(C)=O)c(C)nc3sc4c(=O)n(-c5ccc(C)cc5)nnc4c23)cc1 | inconclusive: 5.62 µM [inhibitor, single point] | –
